{"source": "patent US12070031B2", "about": "(priority 2020, dated 2024)", "system": "citrus leaves", "experiment": "Rainfastness assay on citrus leaves", "design": "species or system Citrus reshni", "key": {"[1]": {"conditions": "500 μg/mL streptomycin, leaves submerged 30 seconds in DI water"}}, "note": "Counter-ions that a name gives are not always drawn.", "data": [{"smiles": "[H]/N=C(/N)N[C@H]1[C@H](O)[C@@H](O)[C@H](O[C@@H]2O[C@@H](C)[C@](O)(C=O)[C@H]2O[C@@H]2O[C@@H](CO)[C@H](O)[C@@H](O)[C@@H]2NC)[C@@H](N/C(N)=N\\[H])[C@@H]1O", "note": "[Streptomycin sulfate, streptomycin sulfate]", "values": [{"measurement": "loss of streptomycin after the first wash", "setting": "[1]", "value": "Around 50%"}, {"measurement": "streptomycin remaining after the second wash", "setting": "[1]", "value": 30, "unit": "%"}, {"measurement": "extraction efficiency of streptomycin from the leaf surface", "setting": "unwashed leaves", "value": 98, "unit": "%"}]}]}
